Reference: US20200289603A1 (ELIXIRON IMMUNOTHERAPEUTICS HONG KONG, published 2020)
No constants are given. Whether binding was seen depends on the method and setting. Some results given as binding are weak or reduced against the parent protein; the word gives no strength.

Protein sequences, listed by entry. Tags and fused reporters are not part of them. Lines headed by an entry give the natural chain unless they say otherwise; changes in a name come on top.
UniProt P01579: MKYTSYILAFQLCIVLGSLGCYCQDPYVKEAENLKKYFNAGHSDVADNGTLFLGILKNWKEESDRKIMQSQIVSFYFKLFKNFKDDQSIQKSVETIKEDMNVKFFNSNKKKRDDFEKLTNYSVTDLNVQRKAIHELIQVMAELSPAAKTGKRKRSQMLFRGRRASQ

Key:
[1] = molecular target: recombinant human IFNγ protein (R&D systems, 285-IF-100) (human) (UniProt P01579); experiment: ELISA: biotinylated human IFNγ on streptavidin-coated plate, serial dilutions of antibody, HRP anti-human IgG, TMB, OD 450-650 nm
[2] = molecular target: recombinant human IFNγ protein (R&D systems, 285-IF-100) (human) (UniProt P01579); experiment: ELISA, plate coated with recombinant human IFN-γ (2 µg/mL), OD405
[3] = molecular target: Cynomolgus IFNγ (R&D systems 961-RM-025) (rhesus macaque/cynomolgus); experiment: ELISA, biotinylated cynomolgus IFNγ on streptavidin plate, serial dilutions of antibody (FIG. 3B)
[4] = molecular target: recombinant human IFNγ protein (R&D systems, 285-IF-100) (human) (UniProt P01579); experiment: ELISA, biotinylated human IFNγ on streptavidin plate, serial dilutions of antibody (FIG. 3A)
[5] = molecular target: Cynomolgus IFNγ (R&D systems 961-RM-025) (rhesus macaque/cynomolgus); experiment: ELISA: biotinylated rhesus macaque/cynomolgus IFNγ on streptavidin-coated plate, serial dilutions of antibody, HRP anti-human IgG, TMB, OD 450-650 nm

Measured: binding

B1: AB (antibody, V domains shown)
VH: EVQLVESGGGLVKPGDSLTVSCVASGFTFSNYFIHWVRQAPGKGLEWVATISGRTKYMFYSDSLRGRFTVSRDNANNSVYLHMSSLRGEDTALYYCVRGYDHSDSNSAADLLHWGRGTLVTVSS
VL: NFMLTQPHSVSESPGKTITISCTRGRGYIASYYVQWYQQRPGGVPKIVVFEDTQRPSGVPDRISGSIDTSTNSASLTISGLQTEDEADYYCQSYDDANHVIFGGGTKLTVLG
binds: all assays above

B2: 2A6 (antibody, human IgG1, lambda, V domains shown)
VH: EVQLVESGGGLVKPGDSLTVSCVASGFTFSNYFIHWVRQAPGKGLEWVATISGRTKYMFYSDSLRGRFTVSRDNANNSVYLHMSSLRGEDTALYYCVRGYDHSDSNSAADLLHWGRGTLVTVSS
VL: NFMLTQPLSVSGYPGKTIVISCVRSSGSVASHYVQWFQQRPGSAPAMVIYEDSHRPSGIPDRFSGSVDASSNSASLTISGLKTEDEADYFCQSYYGNNQVLFGGGTKLTVLG
modifications: partial N-linked glycosylation at position 76 of the VH region
notes: Human IgG1 lambda, cloned from a single patient B cell and expressed in FreeStyle 293-F cells; also called 2A6 anti-IFNγ mAb
binds: [1] | [2] | [4]

B3: 2B6 (antibody, human IgG1, lambda, V domains shown)
VH: EVQLVESGGGLVKPGGSLRLSCAASGFPFSRYSMHWVRQAPGKGLEWVSSMTSRTNHKYYADSLKGRFLISRDNDRDSLYLEMNSLGVEDTAIYFCARGYDTSGSDSGVDFQYWGQGTLVTVSS
VL: NFMLTQPHSVSESPGKTITISCTRGRGYIASYYVQWYQQRPGGVPKIVVFEDTQRPSGVPDRISGSIDTSTNSASLTISGLQTEDEADYYCQSYDDANHVIFGGGTKLTVLG
notes: Human IgG1 lambda; also called 2B6 anti-IFNγ mAb
binds: [1] | [2] | [4]
